Measured values reported in publication PMC9709281.

Target: T1, ETS1 (Homo sapiens (primary CD4+ T cells)) (UniProt P14921)
T1 sequence (looked up, limits assumed): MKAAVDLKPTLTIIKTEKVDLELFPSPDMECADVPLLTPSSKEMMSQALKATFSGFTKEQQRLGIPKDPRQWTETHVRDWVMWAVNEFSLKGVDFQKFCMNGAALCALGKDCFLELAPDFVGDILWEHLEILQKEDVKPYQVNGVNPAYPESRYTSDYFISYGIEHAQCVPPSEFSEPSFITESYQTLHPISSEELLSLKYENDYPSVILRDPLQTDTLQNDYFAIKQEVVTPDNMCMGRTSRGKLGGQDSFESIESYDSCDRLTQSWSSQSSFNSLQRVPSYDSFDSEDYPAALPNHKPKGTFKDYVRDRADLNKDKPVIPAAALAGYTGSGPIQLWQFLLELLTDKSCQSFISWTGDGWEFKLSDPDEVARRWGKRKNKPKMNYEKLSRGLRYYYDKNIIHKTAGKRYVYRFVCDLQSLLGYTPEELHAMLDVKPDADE
Experiment: EMSA supershift
Conditions: ETS1 antibody, additional C-specific supershifted complex; 3-6 ug CD4+ T cell nuclear extract, 250 fmol probe, 0.25 mg/ml poly(dI-dC), 20% glycerol, 5 mM MgCl2, 2.5 mM EDTA, 2.5 mM DTT, 250 mM NaCl, 50 mM Tris pH 7.5, 25 C; protein in an extract; label: 5' IRD700

CTTGTCACTTCCTCCTGTACTG (double strand) [rs2149092 C (risk) probe]
binding result: binds

The exact form of at least one protein or probe is not confirmed. At least one result comes from cells or an extract, where the contact may be indirect. Where a protein sequence is shown, tags need not be part of it.
